Structures can show the parent of a compound that is named as a salt.
Assays:
Assay type in all cases: cell-based
[1] = tested on: venous endothelia HUVEC; test: Cell proliferation assay (CellTiter-Glo), venous endothelia; settings: Homo sapiens, 72 hours of treatment, growth medium
Experimental: (§1) Human primary cell lines, arterial endothelia, such as HAEC and HPAEC, venous endothelia HUVEC (from Cambrex BioScience Rockland Inc.), and lung fibroblasts LL47 (from the American Type Culture Collection) are cultured by following the instruction and used to evaluate the target compounds for their differential activity against human endothelia verses fibroblasts by CellTiter-Glo Luminescent Cell viability Assay. This assay, generating luminescent signals, is based on quantification of ATP levels in cell cultures. Amount of ATP produced in cell culture reflects the number of viable cells. […] Cells are seeded in 96-well plates with their growth medium, about 5×10^3 cell per well. After 24 hours, various doses of the target compounds are added to the cultures, having four replicates for each dose. After 72 hours of treatment, CellTiter-Glo reagent is added to the cultures following the manufacturer's instruction and luminescence is measured. The control groups are given DMSO vehicle only. IC50s of target compounds for endothelia and fibroblasts proliferation in their growth medium are determined based on the dose response curve and plotted against the range of concentrations.

[2] = tested on: arterial endothelia, such as HAEC and HPAEC; test: Cell proliferation assay (CellTiter-Glo), arterial endothelia; settings: Homo sapiens; 72 hours of treatment, growth medium
Experimental: as §1

[3] = tested on: lung fibroblasts LL47; test: Cell proliferation assay (CellTiter-Glo), fibroblasts; settings: Homo sapiens, Fibroblast; 72 hours of treatment, growth medium
Experimental: as §1

Row | Compound | IC50 [1] | IC50 [2] | IC50 [3]
1 | CCCCc1oc2ccccc2c1C(=O)c1cc(I)c(OCCN(CC)CC)c(I)c1 [Amiodarone hydrochloride] | 8.8 µM | 7.5 µM | 
2 | CN(C)CCCN1c2ccccc2CCc2ccc(Cl)cc21 [Clomipramine hydrochloride] | 4.5 µM | 10.8 µM | 28 µM
